Reference: the supplement of paper PMC3334620
The full ranking holds about 33,000 sequences; the median of “E-score (-0.5 to 0.5)” is about -0.0059, and the highest 2% start at about 0.26. This is one part of the list.

Target: T1, Cin5 (UniProt P40917)
T1 sequence: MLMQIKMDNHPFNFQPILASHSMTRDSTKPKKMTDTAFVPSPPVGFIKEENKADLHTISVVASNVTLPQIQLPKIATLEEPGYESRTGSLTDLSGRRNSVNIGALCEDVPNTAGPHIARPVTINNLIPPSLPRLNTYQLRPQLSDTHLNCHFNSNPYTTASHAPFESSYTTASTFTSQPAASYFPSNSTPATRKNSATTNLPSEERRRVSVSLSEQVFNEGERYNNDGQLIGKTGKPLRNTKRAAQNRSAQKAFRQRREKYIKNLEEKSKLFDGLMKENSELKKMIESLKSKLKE
Assay: PBM E-score (8-mer binding enrichment) (E-score (-0.5 to 0.5)); higher = stronger / more preferred TF binding
Settings: protein concentration: 100 nM; construct: GST-full length
Outline: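 Bound GST-tagged yeast transcription factors, applied at about 100-200 nM to double-stranded universal all-10-mer Agilent arrays, were detected with fluorescent anti-GST. Scans were normalised with masliner. A modified Wilcoxon-Mann-Whitney statistic, the E-score, was assigned to each ungapped eight-base word pooled with its reverse complement by the Universal PBM Analysis Suite.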

Sequence	PBM E-score
AACGGTAT	-0.0343
CGCACAGC	-0.147
CGCGGATC	-0.0837
ACCCCCGG	-0.301
GGAACACA	0.0362
AAGAGCGC	-0.00065
CGTTAAAA	-0.179
ACTATCCC	-0.0182
CGGGTAAG	-0.0632
CTTGGAGC	-0.185
GCACCTCC	-0.275
GCCGTATA	0.0545
CATGGAGC	-0.0156
CACTGCCC	-0.0939
AGGCGGCG	-0.0941
CATCCGAA	0.0846
CGGCCGTC	-0.125
AAAGCGGA	-0.0958
GGGTAGCA	-0.181
TCACCAGA	-0.144
GGTCGTTA	0.0687
CCCCGCTA	-0.0285
AGAGACCG	-0.18
ATTGTCAC	0.0732
GCCCAATA	0.0485

For reference, part of the list above:
Sequence	PBM E-score
CATGGAGC	-0.0156
CACTGCCC	-0.0939
AGGCGGCG	-0.0941
CATCCGAA	0.0846

Later entries.

Sequence	PBM E-score
CCTAACCA	0.0938
GGGACGAC	-0.205
AGCGACGA	-0.123
TACCATAA	0.191
TACAATAA	0.139
GTGCCACA	-0.115
ATGTTGCA	0.0815
AAAGGTCA	-0.0751
CTCATCCA	-0.0382
TTGGGAAA	0.11
ATCTTACA	0.0817
CCCGGTAG	-0.108
AGAAAAGC	0.0534
GGCGCACA	-0.071
GACGAGAA	0.0802
TAATATCA	0.26
CGTAAAGC	-0.147
AGGACACT	-0.196
ACCGAGCC	-0.165
TACTAGGA	-0.0768
CCAATCGG	-0.0547
AAATCTTA	0.0634
CTTTCGTC	0.0543
CTGACATA	0.153
ACTATTCG	0.224

Sequence	PBM E-score
CGGCACTA	0.0141
CCAAGAAG	-0.153
CCGCATAA	0.283
GCCGACGA	-0.0276
ACGTAGAC	-0.247
CGATTCGC	0.0834
GATTGCAA	0.079
ACAGTAGC	-0.0133
AGATGCGC	0.0757
CTGAGAGC	-0.242
AGAGGTCC	-0.0165
CGAACTAC	0.129
ACTATAAC	0.0218
AGTGTGGC	0.0189
ATGTGGCC	0.0176
CATTCCAG	-0.21
GGAACCCA	-0.0933
CCTTCGCG	0.0389
CATTATGG	-0.0638
CGCATGGA	-0.0776
ATCTTGTC	0.109
CATTGTTA	0.0595
CTCTCTGA	-0.0567
CTAACCGA	-0.0873
AGGATTGA	0.128

Sequence	PBM E-score
CTGGGCGC	-0.0839
ACCCAATC	0.137
AGAACCAA	-0.0863
GACTGGCA	-0.134
AGCAATCG	0.186
CAATTGGG	0.0205
GAGTGATA	0.148
AACGCCAA	-0.0074
CCCGCTCA	-0.0399
ATGGCCGG	-0.124
AGAAGGAG	-0.187
GATATATA	0.266
CGCTATGC	-0.135
TGCTCTAA	-0.153
AGGCGCAG	-0.252
CGGCAACC	-0.252
AGGGAAAT	-0.00854
ACTACTTC	0.0739
CAGTCTAC	-0.197
GACCGCTA	-0.245
TAACATAA	0.317
GGTATAAA	0.154
CCTTCATC	-0.183
GAATGCTA	0.00429
GGCTTCTA	-0.13

Sequence	PBM E-score
ACACCACC	-0.162
GCCATTCC	-0.0704
ATTCTGTG	0.216
GGACTCGA	-0.127
TACCACGA	0.00714
CGAAGCTC	-0.318
ATACGGTC	-0.0689
ATTGGTTC	0.146
ATTGCGCA	0.119
CGGAATGA	0.146
AGACAGAG	-0.0616
ATGCAGCC	-0.0465
AAGCGAGG	0.00915
CGACACAC	0.0168
GATCGAGA	0.138
CAAAACCG	0.0293
GACTAAAC	-0.0118
CAAGCGTG	0.00333
TCTATACA	-0.0622
GAAAGATA	0.31
GGTGGCCA	-0.106
AATCCGAC	0.0196
AGTGGGCG	0.0596
CGTACTAA	0.203
CTGTACTC	-0.115

Sequence	PBM E-score
CGACTGAA	-0.117
ACCCCCCA	-0.474
CGCTCCGA	0.0457
ACAATGGA	0.127
ACGCTTCC	-0.00759
CGATTAGA	0.0608
GGTACCTA	-0.233
AGACTAGG	-0.104
AACCTCGT	0.0493
ATCTTAGG	-0.0522
CCCACAGA	-0.0683
GTGGTGGA	-0.169
ATCAGATA	0.165
CGGATAGA	0.0855
GCCCAGCA	-0.0867
CAGAGACG	0.051
AGTGAGAG	-0.15
AGATAACC	0.0256
ACTACCAA	-0.0381
ACCGCGGA	0.212
AGGAAGAA	-0.0558
AGCTTTAC	-0.0941
ACGGGGAC	-0.177
GAAAGAAC	-0.0462
CGTTGACA	-0.0832

Sequence	PBM E-score
ACGTTTGA	0.134
CTTGGCAC	-0.156
GCCAGAAC	-0.097
ATATAGCC	0.151
CGGGTAGC	-0.214
CTTGGCCA	-0.141
ATCTTCCA	-0.0756
ATATCTAC	0.179
GCCTGTAA	-0.0993
CGGTTGTC	0.0375
GCGACTAA	0.121
AGCTCGAC	-0.00688
CCCAGGCC	-0.308
ATTACCTA	0.349
AGTTATAG	-0.014
GATGGGTA	0.0805
AAAGTGGC	0.0837
AATAATCG	0.247
GCTCATAA	0.108
ATCAGGTC	0.0226
AGTGTCCC	-0.0108
CTTTGACA	-0.0512
CACCAGCC	-0.156
ACGGATAC	0.223
TATAGCGA	-0.00718

Sequence	PBM E-score
CTTCGCAA	-0.0103
GGGCCATA	0.0202
TCTCTTAA	0.07
AAACATGA	0.131
ACCGGTAG	-0.176
GGCCTGGA	-0.317
CACAAGTC	-0.156
CCGTCCCA	0.0505
ATGATAAT	0.272
ATGCTCGA	-0.0135
AACCCGAA	-0.102
CTACACTC	-0.0261
TGCTACCA	-0.0215
ACCTCTTG	-0.128
TAGCACGA	-0.0771
AGCCTAGC	-0.181
AACCCTCT	-0.204
AGACCCGA	0.0606
CCGCGTCA	-0.145
AATCGAAG	0.155
ATGGCTGA	-0.0318
CGCCGGAC	-0.205
CACTCCGG	0.111
CAATCCTG	0.108
CCGATGCC	-0.0431

Sequence	PBM E-score
ATTTGCGG	0.127
TAGCGAGA	-0.0875
CGGCCTCA	-0.0357
ACAACTTC	0.296
ACACTTTG	-0.0118
GAATTAGA	0.143
GCTGCAAA	0.0746
TTATGAAA	0.238
AGCTCGTC	-0.246
GACTATCC	-0.158
ATTAGTAG	0.0962
ACACCTCT	0.0161
AACAACTT	0.187
GCCACGGA	-0.125
CTCCCATC	-0.017
CAGAGACA	-0.232
CCGGGTAC	-0.25
CTCACCCA	-0.081
ATTAGACC	-0.248
CCGCAAAA	-0.0132
CAACGACC	-0.0159
GTGGGAAA	0.0739
CCGATTCA	-0.0917
AGGACCCC	-0.144
CGGGCCCA	-0.284

Sequence	PBM E-score
AATCGAAA	0.1
GCAACGAC	-0.118
CTCATGTA	0.127
AAAGCGGG	-0.15
CGTGACAC	0.0439
CGCGACTC	-0.0989
TATAGAGA	-0.101
CCATTTCA	-0.0326
AGCAGATG	0.004
CGTATTCA	0.132
ATATCGAC	0.249
CGATTACG	0.389
AGGTTGAT	0.0144
ATACCAGC	-0.0404
GACCTACC	-0.0892
ATTTGAAG	-0.113
CCGACTCA	-0.031
CAAGAGTA	-0.0476
GAGACCAC	-0.159
CGATCGGA	-0.125
AGTTTGTA	0.104
GAGTTCGA	0.113
AATCGGGG	-0.0283
GCTAGCAA	-0.04
CGCGGGGC	-0.0916

4 records drawn at random from those above, as already listed:
Sequence	PBM E-score
CCTTCGCG	0.0389
GGAACACA	0.0362
CCAATCGG	-0.0547
TAGCGAGA	-0.0875

The results go on:

Sequence	PBM E-score
AATATAGC	0.0896
AGAAGAAA	-0.0302
CAGCCGCC	-0.0669
ACTAGAGC	0.0367
ACATAGGA	-0.132
GCTCTCGA	-0.0134
GAGGTCCC	-0.106
TACTAGTA	0.179
AATTATCG	0.156
TGCGCACA	-0.026
ATATTACC	0.317
GCCCCTTA	-0.134
GCCCTAAA	-0.335
ACTCTTCG	-0.0848
ACTCCAGT	0.121
GAGTTTAC	0.125
CTACTGTC	0.0684
ACCAAACG	-0.038
ACTAACAT	0.192
AGTACGAG	0.0932
CGACTTAG	-0.105
AACGGCGT	-0.0715
GCTAACTA	0.18
ATGTGTAC	0.0375
ATGAGCTG	0.0605

Sequence	PBM E-score
AGCACTAC	-0.0958
AAGTGCCT	-0.25
ACCCTGCG	-0.145
ATTCGCCC	-0.0199
CAACCGGC	-0.00301
ATTAGCTA	0.3
ATAGCGCC	0.0692
CAAGCAGA	0.0983
AAGGTGGG	-0.218
AACCTAAC	0.14
TGCCCAAA	-0.145
CCAGATAA	0.0884
GGCATTTA	-0.0216
CCTGGTGC	-0.19
GCGGAGGA	-0.226
AAACGGAA	0.244
CCAGACGC	-0.0958
CAACTAAC	0.158
ACGCGTGG	-0.113
CCTATGGA	-0.0351
AGTTGGAC	-0.104
CTCCTTGA	-0.164
CACCAGGG	-0.274
ACCAAGCT	0.15
CATGTTGG	-0.00808

Sequence	PBM E-score
GGCAATCA	0.102
ACGAGTAT	0.14
AGTCCCAG	-0.199
AAAAAATT	0.0788
CCGTTAAC	0.0424
GGGCCGCA	-0.252
ATACCCTG	-0.0338
AGATCAAA	0.0416
AGAATAAG	0.152
GCCATCTA	-0.0283
CCTGTAGA	0.0645
CTAAGCCA	-0.074
ATAATAAC	0.206
ACTCCACG	-0.0993
CTGAGTAA	0.188
AAATGAAG	0.153
ACTGCTGA	-0.0132
AACGCGCA	0.0734
ACAAACCA	-0.0109
CCTCTAGA	-0.135
GCGAGTAC	0.158
ATACTTGC	0.0833
CCTTGTCC	-0.0761
TACGTGGA	0.121
AGTCAGCA	0.0094

Some of the entries so far, field by field:
ACTCCACG
  PBM E-score: -0.0993
CTGAGTAA
  PBM E-score: 0.188
AAATGAAG
  PBM E-score: 0.153
ACTGCTGA
  PBM E-score: -0.0132

Next entries follow:

Sequence	PBM E-score
ACAGGGGA	-0.146
CGTTGAAG	-0.121
AGCTTAAT	0.21
CTCTGCTC	-0.113
GACTGGGC	-0.323
ATACGAGA	-0.126
ACGTGGGG	-0.165
GAATACTC	-0.00677
CGATCTGC	-0.0483
GCGAGGTA	-0.122
GTCGATGA	0.0342
CCGAGGCC	-0.207
CAACTGTC	-0.102
ATACTTCC	0.0394
CTCCCGGC	-0.106
CGTTGTCA	0.112
AAACGTCT	-0.0492
AAGTGGAT	-0.146
AGGTCAGA	-0.163
